Like-named read-outs stand apart in the source and are kept apart here. No constants are given. Whether binding was seen depends on the method and setting. For some assays here: In cells and extracts the contact can be indirect. Some entries that bind do so weakly or less than the wild type. For some assays here: Tags and fused reporters may be left off the sequences shown.

The chains behind the UniProt entries cited, without tags or fusion partners. Residues count along the entry.
UniProt P61829: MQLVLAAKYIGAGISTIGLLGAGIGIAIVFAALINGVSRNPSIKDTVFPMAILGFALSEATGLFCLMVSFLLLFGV
UniProt P00830, residues 34-511: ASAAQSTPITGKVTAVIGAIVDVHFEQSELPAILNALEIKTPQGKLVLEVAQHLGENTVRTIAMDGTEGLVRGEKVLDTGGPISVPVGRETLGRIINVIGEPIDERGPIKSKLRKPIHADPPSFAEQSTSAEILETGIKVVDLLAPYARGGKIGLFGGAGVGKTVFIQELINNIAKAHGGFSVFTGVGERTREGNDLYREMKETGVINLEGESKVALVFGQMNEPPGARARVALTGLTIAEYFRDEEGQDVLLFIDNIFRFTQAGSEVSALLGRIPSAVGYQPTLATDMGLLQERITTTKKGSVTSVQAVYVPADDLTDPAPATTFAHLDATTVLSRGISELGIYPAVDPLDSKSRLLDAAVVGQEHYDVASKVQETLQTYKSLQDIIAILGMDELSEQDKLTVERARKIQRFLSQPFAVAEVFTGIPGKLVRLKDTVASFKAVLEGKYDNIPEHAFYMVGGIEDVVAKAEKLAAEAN

Experiment [1] deals with T1, Cbp3^ProtA (S. cerevisiae) (UniProt P21560).
T1 sequence: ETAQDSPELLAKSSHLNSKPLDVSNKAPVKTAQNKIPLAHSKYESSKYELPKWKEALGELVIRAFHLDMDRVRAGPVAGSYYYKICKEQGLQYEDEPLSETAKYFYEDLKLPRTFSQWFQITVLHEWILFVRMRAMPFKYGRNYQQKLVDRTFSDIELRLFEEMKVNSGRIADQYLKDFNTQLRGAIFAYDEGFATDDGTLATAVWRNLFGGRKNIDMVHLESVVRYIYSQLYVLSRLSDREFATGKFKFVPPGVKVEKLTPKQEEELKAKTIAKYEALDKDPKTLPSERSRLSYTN
The experiment can be described thus: co-IP; IgG-affinity chromatography of Cbp3, Cbp4 or Cbp6 with a C-terminal Protein A tag from mitochondria, in part after radiolabeling of mitochondrial-encoded proteins.

Experiment [2] concerns the target T2, Ina22 (S. cerevisiae (endogenous in BY4741 mitochondria)) (UniProt P40576).
T2 sequence: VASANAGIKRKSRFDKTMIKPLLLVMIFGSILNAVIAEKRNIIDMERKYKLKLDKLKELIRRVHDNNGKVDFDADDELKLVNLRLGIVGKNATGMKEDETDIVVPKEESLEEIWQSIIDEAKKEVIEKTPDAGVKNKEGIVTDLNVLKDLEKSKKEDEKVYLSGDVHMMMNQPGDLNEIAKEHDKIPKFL
In words: co-IP; rabbit antiserum (anti-Ina22, anti-Ina17 or anti-Atp23) coupled to Protein A sepharose; mitochondria solubilised in 1% digitonin, 160 mM NaCl, 20 mM Tris-HCl pH 7.5, 10% glycerol, 4 °C; wild-type or ina22Δ mitochondria, control or chloramphenicol-pretreated, in part after in organello [35S] labelling.

Experiment [3] addresses Atp9 (S. cerevisiae (endogenous in BY4741 mitochondria)) (UniProt P61829). In words: co-IP + native gel or EMSA; native anti-FLAG isolation of Ina22^FLAG complexes from chloramphenicol-pretreated mitochondria after in organello labelling; BN-PAGE, second dimension SDS-PAGE, autoradiography and western blotting.
The target of experiment [4] is T3, Ina22^FLAG (S. cerevisiae) (UniProt P40576).
T3 sequence: T2 sequence
The experiment can be described thus: cross-linking; chemical crosslinking of mitochondria (250 μM cross-linker, 20 mM HEPES pH 7.4, 100 mM NaCl, on ice 30 min), in part after radiolabeling of mitochondrial-encoded proteins; Ina22^FLAG purified under denaturing conditions (1% SDS, then Triton X100); autoradiography or western blotting. (A western blot detects proteins with antibodies after separation by electrophoresis.)

Experiment [5] addresses T4, Atp10^ProtA (S. cerevisiae) (UniProt P18496).
T4 sequence: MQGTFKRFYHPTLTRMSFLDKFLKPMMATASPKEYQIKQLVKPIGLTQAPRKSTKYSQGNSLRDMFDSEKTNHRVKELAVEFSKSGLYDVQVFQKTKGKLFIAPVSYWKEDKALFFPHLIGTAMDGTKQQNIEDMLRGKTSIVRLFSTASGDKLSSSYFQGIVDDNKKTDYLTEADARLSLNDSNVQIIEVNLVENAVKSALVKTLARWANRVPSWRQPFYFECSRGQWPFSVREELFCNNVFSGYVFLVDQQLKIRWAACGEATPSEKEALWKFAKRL
The experiment can be described thus: co-IP + native gel or EMSA; Atp10^ProtA complexes purified by IgG-affinity chromatography, eluted natively by TEV cleavage, analysed by BN-PAGE (in part second dimension SDS-PAGE) with western blotting or autoradiography. (A gel shift assay detects complexes by their altered migration in electrophoresis.)

Experiment [6] addresses T4, Atp10^ProtA (S. cerevisiae). The experiment can be described thus: co-IP; two-step: Atp10^ProtA complexes isolated natively by IgG-affinity chromatography and TEV cleavage, the eluate then immunoprecipitated with anti-Atp2 antibodies or control pre-immune serum; western blotting.
In experiment [7] the target is T5, Atp23 (S. cerevisiae (endogenous in BY4741 mitochondria)) (UniProt P53722).
T5 sequence: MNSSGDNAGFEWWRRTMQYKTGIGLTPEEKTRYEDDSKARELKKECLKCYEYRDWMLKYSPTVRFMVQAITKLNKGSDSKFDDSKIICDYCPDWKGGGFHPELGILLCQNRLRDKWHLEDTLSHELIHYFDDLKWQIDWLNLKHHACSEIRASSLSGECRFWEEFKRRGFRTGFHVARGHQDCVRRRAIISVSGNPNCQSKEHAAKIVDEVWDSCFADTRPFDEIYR
In words: native gel or EMSA; chloramphenicol-pretreated wild-type and ina22Δ mitochondria, in part labelled in organello for 15 min; BN-PAGE and second dimension SDS-PAGE or urea SDS-PAGE, autoradiography or western blotting.

Experiment [8] deals with T3, Ina22^FLAG (S. cerevisiae). In words: co-IP + native gel or EMSA; native anti-FLAG isolation of Ina22^FLAG complexes from chloramphenicol-pretreated mitochondria after in organello labelling; BN-PAGE, second dimension SDS-PAGE, autoradiography and western blotting.
Experiment [9] concerns the target T4, Atp10^ProtA (S. cerevisiae). The experiment can be described thus: co-IP; IgG-affinity chromatography of Atp10^ProtA under high-stringent conditions: 1% digitonin, 400 mM NaCl, 10 mM Tris-HCl pH 9.0.
The target is the same in experiment [10]. In words: co-IP + native gel or EMSA; Atp10^ProtA complexes purified by IgG-affinity chromatography, eluted natively by TEV cleavage, analysed by BN-PAGE (in part second dimension SDS-PAGE) with western blotting or autoradiography. This is another data set of the same source.
Experiment [11] concerns the target T5, Atp23 (S. cerevisiae (endogenous in BY4741 mitochondria)). The experiment can be described thus: co-IP; rabbit antiserum (anti-Ina22, anti-Ina17 or anti-Atp23) coupled to Protein A sepharose; mitochondria solubilised in 1% digitonin, 160 mM NaCl, 20 mM Tris-HCl pH 7.5, 10% glycerol, 4 °C; wild-type or ina22Δ mitochondria, control or chloramphenicol-pretreated, in part after in organello [35S] labelling.

The target of experiment [12] is T2, Ina22 (S. cerevisiae (endogenous in BY4741 mitochondria)). Described as above. This is another data set of the same source.
The target of experiment [13] is T4, Atp10^ProtA (S. cerevisiae). The experiment can be described thus: co-IP; IgG-affinity chromatography of Atp10^ProtA; mitochondria (wild-type or ina22Δ background, control or chloramphenicol-pretreated, in part after in organello [35S] labelling) solubilised in 1% digitonin, 160 mM NaCl, 20 mM Tris-HCl pH 7.5, 10% glycerol (low stringency), 4 °C.
Experiment [14] deals with T6, Atp6 (S. cerevisiae (endogenous in BY4741 mitochondria)) (UniProt P00854).
T6 sequence: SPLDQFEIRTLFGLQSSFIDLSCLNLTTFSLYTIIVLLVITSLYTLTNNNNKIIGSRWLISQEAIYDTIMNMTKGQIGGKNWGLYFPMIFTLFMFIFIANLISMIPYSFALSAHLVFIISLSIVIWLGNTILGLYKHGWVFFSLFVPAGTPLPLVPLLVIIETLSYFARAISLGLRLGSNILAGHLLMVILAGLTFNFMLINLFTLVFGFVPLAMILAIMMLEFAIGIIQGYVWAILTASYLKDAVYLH
In words: native gel or EMSA; chloramphenicol-pretreated wild-type and ina22Δ mitochondria, in part labelled in organello for 15 min; BN-PAGE and second dimension SDS-PAGE or urea SDS-PAGE, autoradiography or western blotting.

In experiment [15] the target is T3, Ina22^FLAG (S. cerevisiae). The experiment can be described thus: co-IP; anti-FLAG M2 affinity gel purification of Ina22^FLAG from solubilised mitochondria, after import of [35S]-labeled Atp10 or after labelling of mitochondrial translation products.

Atp9 (from UniProt P61829 1-76): the binding entry in experiment [1] is given as “no binding”; in [2] it was “binds”; in experiment [3], “binds”; in [4] it was “binds”.

For Atp2 (from UniProt P00830 34-511), the binding entry in experiment [5] and in [6] was “binds” throughout.

B1: Atp6 (protein, UniProt P00854 11-259)
chain: T6 sequence
As to B1, the binding entry is listed as “no binding” in experiment [1]; “binds” in experiment [7]; “binds” in [8]; “binds” in experiment [9]; “binds” in [10]; “binds” in [11]. Besides, the binding result in experiment [12], in [4] and in [13] was “binds” throughout.

Consider MPQLVPFYFMNQLTYGFLLMITLLILFSQFFLPMILRLYVSRLFISKL (peptide, UniProt P00856 1-48) [Atp8], for which the binding entry in experiment [14], in experiment [7], in experiment [8], in experiment [9], in experiment [10] and in experiment [12] was “binds” in each case. The binding entry in experiment [13] is listed as “binds”.

B2: [35S]-labeled Atp10 imported into mitochondria (protein, UniProt P18496 1-279)
chain: T4 sequence
For B2, the binding entry in experiment [15] is reported as “binds”.

The record behind these values is publication PMC5665977.
